The other results are listed elsewhere or left out.

Amino acid sequences for entries named in this document (tags omitted).
UniProt Q0JBA9, entry or part of it: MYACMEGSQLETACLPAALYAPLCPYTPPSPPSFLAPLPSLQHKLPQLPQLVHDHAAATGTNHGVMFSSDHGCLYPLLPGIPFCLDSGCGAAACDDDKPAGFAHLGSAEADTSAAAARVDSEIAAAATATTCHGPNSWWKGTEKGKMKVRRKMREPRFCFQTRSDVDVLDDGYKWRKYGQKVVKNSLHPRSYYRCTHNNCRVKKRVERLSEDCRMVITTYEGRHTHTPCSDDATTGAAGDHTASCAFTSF

This experiment has as its target OsWRKY34 (Oryza sativa, UniProt Q0JBA9 1-250). The experiment is described as follows: protein-binding microarray (RPBM); PBS, 2% BSA, 51.3 ng/ul salmon testes DNA, 50 uM zinc acetate, 200 nM TF, 25 C, 1 h; high values mean tight binding. Particulars: protein: recombinant; tags: N-terminal polyhistidine and DsRed monomer fusion (pET32a); label: CyDye5-dUTP incorporated in the synthesized complementary strand; 3' TTTTT single-stranded linker to array surface; dsDNA, one strand shown. In a few lines: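 Per-feature fluorescence intensity (arbitrary units), read on an Axon 4000B scanner, is the binding signal. Transcription factors carrying an N-terminal polyhistidine tag and DsRed fusion were expressed in E. coli BL21-CodonPlus and purified on Ni–NTA. A custom Agilent array, made double-stranded by primer extension with Cy5-dUTP and blocked with 2% BSA, was incubated with 200 nM protein in PBS, 2% BSA, salmon testes DNA and 50 µM zinc acetate at 25 °C for 1 h and then washed.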
In the case of “CGTTGCAGATCCTGGTTCTTCCACTGCCTTTTGGCTTTTGCGGAGTCACCTAGTGCAG”, the binding signal was 9100 fluorescence intensity (a.u.).

As for “CGCGCGCCGTCTGAGTTTTCATTTTGGATCTTGCGTGGGTCGGAGTCACCTAGTGCAG”, the binding signal is 12200 fluorescence intensity (a.u.).

As for “CTGGTCTCTGCCCTTTAGCCTTTATTCGTCCTGTTCCTTTCGGAGTCACCTAGTGCAG”, the binding signal was 11200 fluorescence intensity (a.u.).

As to “TCTAGTGCCTTTGTTGCTTCATGCCCCTGACTAAGTTCATCGGAGTCACCTAGTGCAG”, the binding signal is 11900 fluorescence intensity (a.u.).

In the case of “ATATGCATTCTTTCATTCACTTGTCCATTCTTCTTTGCCTCGGAGTCACCTAGTGCAG”, the binding signal was 8850 fluorescence intensity (a.u.).

With “GCACATTGATCCAGAAAGCAATTTTTTCTTCATTTTTCATCGGAGTCACCTAGTGCAG”, the binding signal is 9050 fluorescence intensity (a.u.).

With “CATGTTTGGCAGTGTTCGTTCCCACGTTTCGATATAGCGACGGAGTCACCTAGTGCAG”, the binding signal is 10900 fluorescence intensity (a.u.).

“ATTTTTATTTTCATGGTGTTTTAGACCATCCTTAATTTTACGGAGTCACCTAGTGCAG”: the binding signal is 8490 fluorescence intensity (a.u.).

Turning to “TGGTTATTGGCTATTCTGAACTATTTTTATTTACTGAAGCCGGAGTCACCTAGTGCAG”, the binding signal is 8850 fluorescence intensity (a.u.).

As to “GATCCTCTGCCCCTTTTACTCGCATCCTCCCATGTGCAAACGGAGTCACCTAGTGCAG”, the binding signal is 9400 fluorescence intensity (a.u.).

For the sequence “TTTCTTGAACTTGGGGCCATTTTTCCACGTTGTAACTGTCCGGAGTCACCTAGTGCAG”, the binding signal was 9410 fluorescence intensity (a.u.).

In the case of “CTCTGTTTCAGGTTATAAGACTTTCTAGTATTGCCCACATCGGAGTCACCTAGTGCAG”, the binding signal is 8700 fluorescence intensity (a.u.).

On to “ACTCACGCTTTAACACCAGGAATCTTATCTCTATCTCATCCGGAGTCACCTAGTGCAG”, for which the binding signal was 8460 fluorescence intensity (a.u.).

In the case of “TCAATCTGGCGGGGTTTATTTGTGACCCTCGATCGGTCAACGGAGTCACCTAGTGCAG”, the binding signal was 12400 fluorescence intensity (a.u.).

As to “ATGAATAGTACTTTATGTGTGACTAATATTTTTAATTTTTCGGAGTCACCTAGTGCAG”, the binding signal was 8040 fluorescence intensity (a.u.).

As for “GAACTCCACGGCCACCTCCGGTCAAACCGCAGTGCTCACCCGGAGTCACCTAGTGCAG”, the binding signal is 8260 fluorescence intensity (a.u.).

Take “CTCCCATCTCGTCCTCGCTTCCTGCTGGAGCTCGGAACTCCGGAGTCACCTAGTGCAG”: the binding signal is 8620 fluorescence intensity (a.u.).

In the case of “CATAAACGACGCCGCATCAGACAAACTAAACGCGACAATACGGAGTCACCTAGTGCAG”, the binding signal is 8100 fluorescence intensity (a.u.).

For the sequence “GACCCGGTCCTGATCCTACCCCGCCGCGCGGCCTCTTCCTCGGAGTCACCTAGTGCAG”, the binding signal was 10200 fluorescence intensity (a.u.).

As to “AATCTGTCACCTCGCAGCTTCACGCTTCCACGCACACAGACGGAGTCACCTAGTGCAG”, the binding signal was 11400 fluorescence intensity (a.u.).

For the sequence “TTTGATCTTGTGGTGGTTTGGGTGATCGGTGGCGATGGGGCGGAGTCACCTAGTGCAG”, the binding signal is 11000 fluorescence intensity (a.u.).

On to “CCTTGCCTAGTCGCTGCTGCTGTTTATAAATTTCAACTCCCGGAGTCACCTAGTGCAG”, for which the binding signal was 8810 fluorescence intensity (a.u.).

Turning to “CTGGCGCTTCCGCTTCTTCTCCGGCGACGGCGCGGCGGCGCGGAGTCACCTAGTGCAG”, the binding signal was 9260 fluorescence intensity (a.u.).

With “ACTTAGGTTATGGTTGGGACCCACTTGTCAGTGTCAGTTCCGGAGTCACCTAGTGCAG”, the binding signal is 10700 fluorescence intensity (a.u.).

Consider “TGCGTTTCCCGTCAGCCCTGTCACGCCGCCGCCGGTCGCCCGGAGTCACCTAGTGCAG”, for which the binding signal is 12000 fluorescence intensity (a.u.).

As for “TGAGTCGTGTCCCATCCCACCTGCGCACCCAGCCCGGTAACGGAGTCACCTAGTGCAG”, the binding signal is 8210 fluorescence intensity (a.u.).

As for “ACATATTGGTTGACTTTTTGCCGGGTCCACCGATTGGCACCGGAGTCACCTAGTGCAG”, the binding signal is 17700 fluorescence intensity (a.u.).

In the case of “CCTCGCGCTACTCACCATCGCGACCGCGTTCCTCCTCACACGGAGTCACCTAGTGCAG”, the binding signal is 10400 fluorescence intensity (a.u.).

With “ACCATATCTCTGTCTTGTCTCCCTTTCACATGTCACCTCTCGGAGTCACCTAGTGCAG”, the binding signal is 8380 fluorescence intensity (a.u.).

Consider “CTGTTCCGCCACCTACCACCGAGCCGTTGTCTCCCATGACCGGAGTCACCTAGTGCAG”, for which the binding signal was 10100 fluorescence intensity (a.u.).

Turning to “ATTTTACAGGGTTGTACCGTTTGATACGATCGTCGTTCCACGGAGTCACCTAGTGCAG”, the binding signal was 9750 fluorescence intensity (a.u.).

In the case of “CTCCGCTCGCTCTCCACCGCTCGCCGCGCACGCCTCACCGCGGAGTCACCTAGTGCAG”, the binding signal is 9920 fluorescence intensity (a.u.).

As to “CCTCTGTCGCCGCCATCGCCGGTCACTCTTCCACCTGCACCGGAGTCACCTAGTGCAG”, the binding signal was 12900 fluorescence intensity (a.u.).

As for “GTTCCCTTACCGCACTGTAAGTTTGTTAATTATGCTCCTACGGAGTCACCTAGTGCAG”, the binding signal is 8950 fluorescence intensity (a.u.).

Take “TTGACCGCCCTGACTGCCCCGTACCAGCGACAGCTTTTCCCGGAGTCACCTAGTGCAG”: the binding signal is 10200 fluorescence intensity (a.u.).

Turning to “TATCCCTTGTCCTCGCAACCCCGCTTCCTTCTCTCCTCTCCGGAGTCACCTAGTGCAG”, the binding signal was 10500 fluorescence intensity (a.u.).

“CCCTGCCGCCGGCGCAGGCGCCGCGCCTTTCTCGGTGCTCCGGAGTCACCTAGTGCAG”: the binding signal is 10100 fluorescence intensity (a.u.).

Turning to “TTCAAAATGTTTGATACCGTTGACTTTTTAGCACATTTTGCGGAGTCACCTAGTGCAG”, the binding signal is 29400 fluorescence intensity (a.u.).

Consider “CAACATTTAATACAACATTTAGTTTTACTGTGCATTGCTTCGGAGTCACCTAGTGCAG”, for which the binding signal is 8670 fluorescence intensity (a.u.).

Consider “TAGTCTTTTGTCTCTCTATTTTTTTTTGGGCAAGTCTTTTCGGAGTCACCTAGTGCAG”, for which the binding signal was 12100 fluorescence intensity (a.u.).

For “TTTGTGGTGGGTTCTAACTATTTTTTAATTGTGGCATAGTCGGAGTCACCTAGTGCAG”, the binding signal was 9800 fluorescence intensity (a.u.).

For “ATCTTCGCAACTGCCTCCTTCCGCGTCGCGAGGTGTTTTCCGGAGTCACCTAGTGCAG”, the binding signal is 9410 fluorescence intensity (a.u.).

The values are drawn from article PMC7819943, “Rice protein-binding microarrays: a tool to detect cis-acting elements near promoter regions in rice”.
